# Results are given in words; binding and its absence hold for the method and conditions named. Some results given as binding are weak or reduced against the parent protein; the word gives no strength.
# Chains of the proteins cited; added tags and fusions are not shown. Residues count along the entry.
# UniProt P60568, residues 21-153: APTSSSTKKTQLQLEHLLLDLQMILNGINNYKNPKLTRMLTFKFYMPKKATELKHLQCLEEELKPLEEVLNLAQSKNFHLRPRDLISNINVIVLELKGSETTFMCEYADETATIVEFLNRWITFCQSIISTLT
# UniProt Q15116, residues 25-167: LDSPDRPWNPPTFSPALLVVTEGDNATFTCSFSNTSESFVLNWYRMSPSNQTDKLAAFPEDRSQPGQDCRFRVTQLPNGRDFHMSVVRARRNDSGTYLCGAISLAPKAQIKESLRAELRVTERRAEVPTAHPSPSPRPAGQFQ
# Columns and labels:
# IL2 (R&D, 202-IL) = IL2 (R&D, 202-IL) (UniProt P60568); test: ELISA
# [1] = molecular target: biotinylated recombinant PD1 (PD1-HisAvi, Acro Biosystems PD1-H82E4) (UniProt Q15116); test: ELISA
Binder,"binding (IL2 (R&D, 202-IL))",binding [1]
AB002293_2B07v2 scFv (AF003676) (scFv) scFv: MSTSTQVQLVQSGAEVKKPGASVKVSCKASGDTFTRYYVHWVRQAPGQGLEWMGIINPSGGYASYAQKFQGRVTMTRDTSTSTVYMELSSLRSEDTAVYYCAAGLFIWGQGTLVTVSSASGGGGSGGGGSGGGGSHASDIQMTQSPSSLSASVGDRVTITCRASQSIGRWLAWYQQKPGKAPKLLIYSASNLETGVPSRFSGSGSGTDFTLTISSLQPEDFATYYCQQYNSFPVTFGPGTKVDIKAAAGSGSEQKLISEEDLGKPIPNPLLGLDST,binds,binds
AB002353_2B07v9 scFv (AF003736) (scFv) scFv: MSTSTQVQLVQSGAEVKKPGASVKVSCKASGDTFTRYYVHWVRQAPGQGLEWMGIINPSGGYASYAQKFQGRVTMTRDTSTSTVYMELSSLRSEDTAVYYCAAGLFIWGQGTLVTVSSASGGGGSGGGGSGGGGSHASDIQMTQSPSSLSASVGDRVTITCRASQSIGRWLAWYQQKPGKAPKLLIYSASNLETGVPSRFSGSGSGTDFTLTISSLQPEDFATYYCQQYESFPVTFGPGTKVDIKAAAGSGSEQKLISEEDLGKPIPNPLLGLDST,binds,binds
AB002342_2B07v5 scFv (AF003725) (scFv) scFv: MSTSTQVQLVQSGAEVKKPGASVKVSCKASGDTFTRYYVHWVRQAPGQGLEWMGIINPSGGYASYAQKFQGRVTMTRDTSTSTVYMELSSLRSEDTAVYYCAAGLFIWGQGTLVTVSSASGGGGSGGGGSGGGGSHASDIQMTQSPSSLSASVGDRVTITCRASQSIGRWLAWYQQKPGKAPKLLIYSASNLETGVPSRFSGSGSGTDFTLTISSLQPEDFATYYCQQYERFPVTFGPGTKVDIKAAAGSGSEQKLISEEDLGKPIPNPLLGLDST,binds,binds
"AB002328_2B07v4 scFv (AF003711) (scFv, V domains shown) VH: QVQLVQSGAEVKKPGASVKVSCKASGDTFTRYYVHWVRQAPGQGLEWMGIINPSGGYASYAQKFQGRVTMTRDTSTSTVYMELSSLRSEDTAVYYCAAGLFIWGQGTLVTVSS VL: DIQMTQSPSSLSASVGDRVTITCRASQSIGRWLAWYQQKPGKAPKLLIYSASNLETGVPSRFSGSGSGTDFTLTISSLQPEDFATYYCQQYNRFPVTFGPGTKVDIK",binds,binds
AB002326_2B07v3 scFv (AF003709) (scFv) scFv: MSTSTQVQLVQSGAEVKKPGASVKVSCKASGDTFTRYYVHWVRQAPGQGLEWMGIINPSGGYASYAQKFQGRVTMTRDTSTSTVYMELSSLRSEDTAVYYCAAGLFIWGQGTLVTVSSASGGGGSGGGGSGGGGSHASDIQMTQSPSSLSASVGDRVTITCRASQSIGSWLAWYQQKPGKAPKLLIYSASNLETGVPSRFSGSGSGTDFTLTISSLQPEDFATYYCQQYNSFPVTFGPGTKVDIKAAAGSGSEQKLISEEDLGKPIPNPLLGLDST,binds,binds
AB002345_2B07v6 scFv (AF003728) (scFv) scFv: MSTSTQVQLVQSGAEVKKPGASVKVSCKASGDTFTRYYVHWVRQAPGQGLEWMGIINPSGGYASYAQKFQGRVTMTRDTSTSTVYMELSSLRSEDTAVYYCAAGLFIWGQGTLVTVSSASGGGGSGGGGSGGGGSHASDIQMTQSPSSLSASVGDRVTITCRASQSIGRYLAWYQQKPGKAPKLLIYSASNLETGVPSRFSGSGSGTDFTLTISSLQPEDFATYYCQQYNSFPVTFGPGTKVDIKAAAGSGSEQKLISEEDLGKPIPNPLLGLDST,binds,binds
AB002348_2B07v8 scFv (AF003731) (scFv) scFv: MSTSTQVQLVQSGAEVKKPGASVKVSCKASGDTFTRYYVHWVRQAPGQGLEWMGIINPSGGYASYAQKFQGRVTMTRDTSTSTVYMELSSLRSEDTAVYYCAAGLFIWGQGTLVTVSSASGGGGSGGGGSGGGGSHASDIQMTQSPSSLSASVGDRVTITCRASQSIGRYLAWYQQKPGKAPKLLIYYASNLETGVPSRFSGSGSGTDFTLTISSLQPEDFATYYCQQYNSFPVTFGPGTKVDIKAAAGSGSEQKLISEEDLGKPIPNPLLGLDST,binds,binds
AB002022_2B07v1 scFv (AF002829) (scFv) scFv: MSTSTEQKLISEEDLQVQLVQSGAEVKKPGASVKVSCKASGDTFTRHYVHWVRQAPGQGLEWMGIINPSGGYASYAQKFQGRVTMTRDTSTSTVYMELSSLRSEDTAVYYCAAGLFIWGQGTLVTVSSASGGGGSGGGGSGGGGSHASDIQMTQSPSSLSASVGDRVTITCRASQSIGRWLAWYQQKPGKAPKLLIYSASNLETGVPSRFSGSGSGTDFTLTISSLQPEDFATYYCQQYESFPVTFGPGTKVDIKGKPIPNPLLGLDST,binds,binds
AB002347_2B07v7 scFv (AF003730) (scFv) scFv: MSTSTQVQLVQSGAEVKKPGASVKVSCKASGDTFTRYYVHWVRQAPGQGLEWMGIINPSGGYASYAQKFQGRVTMTRDTSTSTVYMELSSLRSEDTAVYYCAAGLFIWGQGTLVTVSSASGGGGSGGGGSGGGGSHASDIQMTQSPSSLSASVGDRVTITCRASQSIGRYLAWYQQKPGKAPKLLIYSASNLETGVPSRFSGSGSGTDFTLTISSLQPEDFATYYCQQYNRFPVTFGPGTKVDIKAAAGSGSEQKLISEEDLGKPIPNPLLGLDST,binds,binds
AB003021_2A11v7 scFv (AF005103) (scFv) scFv: MSTSTQVQLVQSGAEVKKPGASVKVSCKASGFTFTRYYMHWVRQAPGQGLEWMGVINPSGGYATYAQKFQGRVTMTRDTSTSTVYMELSSLRSEDTAVYYCASGWDVWGQGTLVTVSSGGGGSGGGGSGGGGSGGGGSDIQMTQSPSSLSASVGDRVTITCRASQSISSWLAWYQQKPGKAPKLLIYATSTLESGVPSRFSGSGSGTDFTLTISSLQPEDFATYYCQQSYSSPVTFGQGTKVEIKEQKLISEEDLGSGLNDIFEAQKIEWHEGKPIPNPLLGLDST,binds,binds
"AB002417_2A11v4 scFv (AF005148) (scFv, V domains shown) VH: QVQLVQSGAEVKKPGASVKVSCKASGHTFTRYYMHWVRQAPGQGLEWMGIINPSGGYATYAQKFQGRVTMTRDTSTSTVYMELSSLRSEDTAVYYCASGLFIWGQGTLVTVSS VL: DIQMTQSPSSLSASVGDRVTITCRASQSINSWLAWYQQKPGKAPKLLIYATSTLESGVPSRFSGSGSGTDFTLTISSLQPEDFATYYCQQYYSFPVTFGQGTKVEIK",binds,binds
"AB002413_2A11v3 scFv (AF005147) (scFv, V domains shown) VH: QVQLVQSGAEVKKPGASVKVSCKASGHTFTRYYMHWVRQAPGQGLEWMGIINPSGGYATYAQKFQGRVTMTRDTSTSTVYMELSSLRSEDTAVYYCASGLFIWGQGTLVTVSS VL: DIQMTQSPSSLSASVGDRVTITCRASQSINSWLAWYQQKPGKAPKLLIYATSTLESGVPSRFSGSGSGTDFTLTISSLQPEDFATYYCQQYYRFPVTFGQGTKVEIK",binds,binds
"AB002427_2A11v5 scFv (AF005149) (scFv, V domains shown) VH: QVQLVQSGAEVKKPGASVKVSCKASGHTFTRYYMHWVRQAPGQGLEWMGIINPSGGYATYAQKFQGRVTMTRDTSTSTVYMELSSLRSEDTAVYYCASGLFIWGQGTLVTVSS VL: DIQMTQSPSSLSASVGDRVTITCRASQSINSWLAWYQQKPGKAPKLLIYATSTLESGVPSRFSGSGSGTDFTLTISSLQPEDFATYYCQQSYRFPVTFGQGTKVEIK",binds,binds
AB003200_2B05v1 scFv (AF005131) (scFv) scFv: MSTSTQVQLVQSGAEVKKPGASVKVSCKASGETFTNYYIHWVRQAPGQGLEWMGVINPRAGYTSYALKFQGRVTMTRDTSTSTVYMELSSLRSEDTAVYYCAGGWEDWGQGTLVTVSSGGGGSGGGGSGGGGSGGGGSDIQMTQSPSSLSASVGDRVTITCRISQSISSWLAWYQQKPGKAPKLLIYSASSLQSGVPSRFSGSGSGTDFTLTISSLQPEDFATYYCQQSFTSPITFGQGTRLEIKEQKLISEEDLGSGLNDIFEAQKIEWHEGKPIPNPLLGLDST,–,binds
AB003209_2B05v4 scFv (AF005140) (scFv) scFv: MSTSTQVQLVQSGAEVKKPGASVKVSCKASGETFTNYYIHWVRQAPGQGLEWMGIIDPRAGYTSYALKFQGRVTMTRDTSTSTVYMELSSLRSEDTAVYYCAGGWEDWGQGTLVTVSSGGGGSGGGGSGGGGSGGGGSDIQMTQSPSSLSASVGDRVTITCRISQSISSFLAWYQQKPGKAPKLLIYSASSLQSGVPSRFSGSGSGTDFTLTISSLQPEDFATYYCQQSFTSPITFGQGTRLEIKEQKLISEEDLGSGLNDIFEAQKIEWHEGKPIPNPLLGLDST,–,binds
AB003201_2B05v2 scFv (AF005132) (scFv) scFv: MSTSTQVQLVQSGAEVKKPGASVKVSCKASGGTFTNYYIHWVRQAPGQGLEWMGIIDPRAGYTSYALKFQGRVTMTRDTSTSTVYMELSSLRSEDTAVYYCAGGWEDWGQGTLVTVSSGGGGSGGGGSGGGGSGGGGSDIQMTQSPSSLSASVGDRVTITCRISQSISSWLAWYQQKPGKAPKLLIYSASSLQSGVPSRFSGSGSGTDFTLTISSLQPEDFATYYCQQSFTSPITFGQGTRLEIKEQKLISEEDLGSGLNDIFEAQKIEWHEGKPIPNPLLGLDST,–,binds
AB003202_2B05v3 scFv (AF005133) (scFv) scFv: MSTSTQVQLVQSGAEVKKPGASVKVSCKASGSTFTNYYIHWVRQAPGQGLEWMGIIDPRAGYTSYALKFQGRVTMTRDTSTSTVYMELSSLRSEDTAVYYCAGGWEDWGQGTLVTVSSGGGGSGGGGSGGGGSGGGGSDIQMTQSPSSLSASVGDRVTITCRISQSISSFLAWYQQKPGKAPKLLIYSASSLQSGVPSRFSGSGSGTDFTLTISSLQPEDFATYYCQQSFTSPITFGQGTRLEIKEQKLISEEDLGSGLNDIFEAQKIEWHEGKPIPNPLLGLDST,–,binds
AB003155_2B07v10 scFv (AF005042) (scFv) scFv: MSTSTQVQLVQSGAEVKKPGASVKVSCKASGETFTRYYVHWVRQAPGQGLEWMGIINPSGGYASYAQKFQGRVTMTRDTSTSTVYMELSSLRSEDTAVYYCAAGLFIWGQGTLVTVSSGGGGSGGGGSGGGGSGGGGSDIQMTQSPSSLSASVGDRVTITCRASQSIGRWLAWYQQKPGKAPKLLIYSASNLETGVPSRFSGSGSGTDFTLTISSLQPEDFATYYCQQYNRFPVTFGPGTKVDIKEQKLISEEDLGSGLNDIFEAQKIEWHEGKPIPNPLLGLDST,binds,binds

# Reference: patent US20240366776A1 (Hoffmann-La Roche, published 2024)
